PubChem BioAssay AID1508587 – Peter MacCallum Cancer Centre | 2020

- Aim: 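Knockdowns that add to vemurafenib's cut in melanoma glycolysis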 (follow-up of hits)
- Cells: human WM266.4 melanoma cells with a BRAF V600 mutation
- Knock-down reagent: single siRNA against human genes, 25 nM
- Time to read-out: 96 h
- Challenge: vemurafenib 300 nM (about IC25), given 48 h after transfection for 48 h
- Measured: 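Per-cell lactate from absorbance divided by DAPI nucleus counts, compared with and without vemurafenib, relative to non-targeting siRNA, mean of 2 replicates; nuclear counts also give cell number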
- Scale: lactate per cell, drug vs no drug: higher = less drug-induced drop in lactate per cell; lactate per cell with vemurafenib: higher = more lactate per cell under drug
- Hit rule: 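a duplex is active when its lactate-per-cell ratio with versus without drug falls under 0.55, i.e. 2 SD below non-targeting; a gene is confirmed if 2 or more of 4 duplexes pass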
Here is an unselected part of about 1,600 reagents tested. 623 of all reagents (39%) count as active. 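Calls are for each duplex; lactate ratios contain extreme outliers.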 Unmarked entries are inactive. The numbers tell different reagents against one gene apart. Further read-outs or replicates are left out here.

{"Gene": "CRIP2 (cysteine rich protein 2)", "reagent no.": 1, "lactate per cell, drug vs no drug": 0.57, "lactate per cell with vemurafenib": 0.78}
{"Gene": "CRIP2 (cysteine rich protein 2)", "reagent no.": 2, "lactate per cell, drug vs no drug": "0.3 (active)", "lactate per cell with vemurafenib": 0.36}
{"Gene": "CRIP2 (cysteine rich protein 2)", "reagent no.": 3, "lactate per cell, drug vs no drug": "0.45 (active)", "lactate per cell with vemurafenib": 2.67}
{"Gene": "CRIP2 (cysteine rich protein 2)", "reagent no.": 4, "lactate per cell, drug vs no drug": "0.41 (active)", "lactate per cell with vemurafenib": 0.52}
{"Gene": "REL (REL proto-oncogene, NF-kB subunit)", "reagent no.": 1, "lactate per cell, drug vs no drug": 0.77, "lactate per cell with vemurafenib": 2.34}
{"Gene": "REL (REL proto-oncogene, NF-kB subunit)", "reagent no.": 2, "lactate per cell, drug vs no drug": 0.68, "lactate per cell with vemurafenib": 1.65}
{"Gene": "REL (REL proto-oncogene, NF-kB subunit)", "reagent no.": 3, "lactate per cell, drug vs no drug": "0.5 (active)", "lactate per cell with vemurafenib": 0.69}
{"Gene": "REL (REL proto-oncogene, NF-kB subunit)", "reagent no.": 4, "lactate per cell, drug vs no drug": "0.54 (active)", "lactate per cell with vemurafenib": 1.7}
{"Gene": "CD302 (CD302 molecule)", "reagent no.": 1, "lactate per cell, drug vs no drug": "0.51 (active)", "lactate per cell with vemurafenib": 1.03}
{"Gene": "CD302 (CD302 molecule)", "reagent no.": 2, "lactate per cell, drug vs no drug": "0.4 (active)", "lactate per cell with vemurafenib": 1.05}
{"Gene": "CD302 (CD302 molecule)", "reagent no.": 3, "lactate per cell, drug vs no drug": "0.52 (active)", "lactate per cell with vemurafenib": 3.08}
{"Gene": "CD302 (CD302 molecule)", "reagent no.": 4, "lactate per cell, drug vs no drug": "0.52 (active)", "lactate per cell with vemurafenib": 0.42}
{"Gene": "INPP4B (inositol polyphosphate-4-phosphatase type II B)", "reagent no.": 1, "lactate per cell, drug vs no drug": 0.57, "lactate per cell with vemurafenib": 1.97}
{"Gene": "INPP4B (inositol polyphosphate-4-phosphatase type II B)", "reagent no.": 2, "lactate per cell, drug vs no drug": 0.6, "lactate per cell with vemurafenib": 1.03}
{"Gene": "INPP4B (inositol polyphosphate-4-phosphatase type II B)", "reagent no.": 3, "lactate per cell, drug vs no drug": 0.66, "lactate per cell with vemurafenib": 1.29}
{"Gene": "INPP4B (inositol polyphosphate-4-phosphatase type II B)", "reagent no.": 4, "lactate per cell, drug vs no drug": "0.42 (active)", "lactate per cell with vemurafenib": 0.6}
{"Gene": "SLC6A13", "reagent no.": 1, "lactate per cell, drug vs no drug": "0.36 (active)", "lactate per cell with vemurafenib": 0.46}
{"Gene": "SLC6A13", "reagent no.": 2, "lactate per cell, drug vs no drug": 0.84, "lactate per cell with vemurafenib": 2.44}
{"Gene": "SLC6A13", "reagent no.": 3, "lactate per cell, drug vs no drug": "0.53 (active)", "lactate per cell with vemurafenib": 0.82}
{"Gene": "SLC6A13", "reagent no.": 4, "lactate per cell, drug vs no drug": 1.05, "lactate per cell with vemurafenib": 3}
{"Gene": "C19orf47 (chromosome 19 open reading frame 47)", "reagent no.": 1, "lactate per cell, drug vs no drug": 0.63, "lactate per cell with vemurafenib": 0.97}
{"Gene": "C19orf47 (chromosome 19 open reading frame 47)", "reagent no.": 2, "lactate per cell, drug vs no drug": 0.78, "lactate per cell with vemurafenib": 1.91}
{"Gene": "C19orf47 (chromosome 19 open reading frame 47)", "reagent no.": 3, "lactate per cell, drug vs no drug": 0.8, "lactate per cell with vemurafenib": 1.37}
{"Gene": "C19orf47 (chromosome 19 open reading frame 47)", "reagent no.": 4, "lactate per cell, drug vs no drug": "0.5 (active)", "lactate per cell with vemurafenib": 1.19}
{"Gene": "YTHDC2 (YTH N6-methyladenosine RNA binding protein C2)", "reagent no.": 1, "lactate per cell, drug vs no drug": 0.66, "lactate per cell with vemurafenib": 0.9}
{"Gene": "YTHDC2 (YTH N6-methyladenosine RNA binding protein C2)", "reagent no.": 2, "lactate per cell, drug vs no drug": 1.04, "lactate per cell with vemurafenib": 2.56}
{"Gene": "YTHDC2 (YTH N6-methyladenosine RNA binding protein C2)", "reagent no.": 3, "lactate per cell, drug vs no drug": "0.24 (active)", "lactate per cell with vemurafenib": 0.16}
{"Gene": "YTHDC2 (YTH N6-methyladenosine RNA binding protein C2)", "reagent no.": 4, "lactate per cell, drug vs no drug": 0.72, "lactate per cell with vemurafenib": 2.98}
{"Gene": "THUMPD3 (THUMP domain 3 tRNA guanosine methyltransferase)", "reagent no.": 1, "lactate per cell, drug vs no drug": 0.57, "lactate per cell with vemurafenib": 0.82}
{"Gene": "THUMPD3 (THUMP domain 3 tRNA guanosine methyltransferase)", "reagent no.": 2, "lactate per cell, drug vs no drug": 0.56, "lactate per cell with vemurafenib": 0.68}
{"Gene": "THUMPD3 (THUMP domain 3 tRNA guanosine methyltransferase)", "reagent no.": 3, "lactate per cell, drug vs no drug": "0.45 (active)", "lactate per cell with vemurafenib": 0.45}
{"Gene": "THUMPD3 (THUMP domain 3 tRNA guanosine methyltransferase)", "reagent no.": 4, "lactate per cell, drug vs no drug": "0.35 (active)", "lactate per cell with vemurafenib": 0.46}
{"Gene": "GLRA1 (glycine receptor alpha 1)", "reagent no.": 1, "lactate per cell, drug vs no drug": 0.68, "lactate per cell with vemurafenib": 2.29}
{"Gene": "GLRA1 (glycine receptor alpha 1)", "reagent no.": 2, "lactate per cell, drug vs no drug": "0.48 (active)", "lactate per cell with vemurafenib": 1.73}
{"Gene": "GLRA1 (glycine receptor alpha 1)", "reagent no.": 3, "lactate per cell, drug vs no drug": "0.51 (active)", "lactate per cell with vemurafenib": 1.27}
{"Gene": "GLRA1 (glycine receptor alpha 1)", "reagent no.": 4, "lactate per cell, drug vs no drug": 0.57, "lactate per cell with vemurafenib": 1.24}

In a second layout: entries from further up.
YTHDC2 (YTH N6-methyladenosine RNA binding protein C2) #2
- lactate per cell, drug vs no drug: 1.04
- lactate per cell with vemurafenib: 2.56

YTHDC2 (YTH N6-methyladenosine RNA binding protein C2) #3
- lactate per cell, drug vs no drug: 0.24 (active)
- lactate per cell with vemurafenib: 0.16
